# Test results taken from the supplement of paper PMC8728848.
# The list shows a part of the results.
# Experiments:
# Experiment in all cases: glycan array binding signal (z-score within array); higher = stronger binding
# Conditions in all cases: glycan notation: IUPAC condensed, linker removed
# [1] = molecular target: Neu5Ac(a2-3)Gal(b1-3)GlcNAc(b1-2)Man(a1-3)[GlcNAc(b1-4)][Neu5Ac(a2-3)Gal(b1-3)GlcNAc(b1-2)Man(a1-6)]Man(b1-4)GlcNAc(b1-4)GlcNAc
# Outline: (§1)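 Columns mapping to the same glycan were averaged after glycan names were converted to IUPAC-condensed notation. The data come from 3228 arrays in the Consortium for Functional Glycomics database, limited to those with an available protein sequence. Binding is reported as a within-array Z-score averaged across arrays of one protein sequence and across linkers.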
# [2] = molecular target: Neu5Ac(a2-3)Gal(b1-3)GlcNAc(b1-2)Man(a1-3)[Neu5Ac(a2-3)Gal(b1-3)GlcNAc(b1-2)Man(a1-6)]Man(b1-4)GlcNAc(b1-4)GlcNAc
# Outline: as §1
# [3] = molecular target: Neu5Ac(a2-3)Gal(b1-3)GlcNAc(b1-3)Gal(b1-3)GlcNAc
# Outline: as §1
# [4] = molecular target: Neu5Ac(a2-3)Gal(b1-3)GlcNAc(b1-3)Gal(b1-4)GlcNAc
# Outline: as §1
# [5] = molecular target: Neu5Ac(a2-3)Gal(b1-3)GlcNAc(b1-3)GalNAc
# Outline: as §1
# [6] = molecular target: Neu5Ac(a2-3)Gal(b1-3)GlcNAc(b1-4)Gal(b1-4)Glc
# Outline: as §1
# [7] = molecular target: Neu5Ac(a2-3)Gal(b1-3)GlcNAc(b1-6)GalNAc
# Outline: as §1
# [8] = molecular target: Neu5Ac(a2-3)Gal(b1-3)GlcNAc6S
# Outline: as §1
# [9] = molecular target: Neu5Ac(a2-3)Gal(b1-3)[Fuc(a1-4)]GlcNAc
# Outline: as §1
# [10] = molecular target: Neu5Ac(a2-3)Gal(b1-3)[Fuc(a1-4)]GlcNAc(b1-3)Gal(b1-3)[Fuc(a1-4)]GlcNAc
# Outline: as §1
# [11] = molecular target: Neu5Ac(a2-3)Gal(b1-3)[Fuc(a1-4)]GlcNAc(b1-3)Gal(b1-4)[Fuc(a1-3)]GlcNAc
# Outline: as §1
# [12] = molecular target: Neu5Ac(a2-3)Gal(b1-3)[GlcNAc(b1-6)]GalNAc
# Outline: as §1
# [13] = molecular target: Neu5Ac(a2-3)Gal(b1-3)[Neu5Ac(a2-6)]GalNAc
# Outline: as §1
# [14] = molecular target: Neu5Ac(a2-3)Gal(b1-3)[Neu5Ac(a2-6)]GlcNAc(b1-3)[Fuc(a1-3)[Gal(b1-4)]GlcNAc(b1-6)]Gal(b1-4)Glc
# Outline: as §1
# [15] = molecular target: Neu5Ac(a2-3)Gal(b1-3)]Neu5Ac(a2-3)Gal(b1-4)]GlcNAc
# Outline: as §1
# [16] = molecular target: Neu5Ac(a2-3)Gal(b1-4)Glc
# Outline: as §1
# [17] = molecular target: Neu5Ac(a2-3)Gal(b1-4)GlcNAc
# Outline: as §1
# [18] = molecular target: Neu5Ac(a2-3)Gal(b1-4)GlcNAc(b1-2)Man
# Outline: as §1
# [19] = molecular target: Neu5Ac(a2-3)Gal(b1-4)GlcNAc(b1-2)Man(a1-3)[GlcNAc(b1-4)][Neu5Ac(a2-3)Gal(b1-4)GlcNAc(b1-2)Man(a1-6)]Man(b1-4)GlcNAc(b1-4)GlcNAc
# Outline: as §1
# [20] = molecular target: Neu5Ac(a2-3)Gal(b1-4)GlcNAc(b1-2)Man(a1-3)[Neu5Ac(a2-3)Gal(b1-4)GlcNAc(b1-2)Man(a1-6)]Man(b1-4)GlcNAc(b1-4)GlcNAc
# Outline: as §1
# [21] = molecular target: Neu5Ac(a2-3)Gal(b1-4)GlcNAc(b1-2)Man(a1-3)[Neu5Ac(a2-3)Gal(b1-4)GlcNAc(b1-2)Man(a1-6)]Man(b1-4)GlcNAc(b1-4)[Fuc(a1-6)]GlcNAc
# Outline: as §1
# [22] = molecular target: Neu5Ac(a2-3)Gal(b1-4)GlcNAc(b1-2)Man(a1-3)[Neu5Ac(a2-6)Gal(b1-4)GlcNAc(b1-2)Man(a1-6)]Man(b1-4)GlcNAc(b1-4)GlcNAc
# Outline: as §1
# [23] = molecular target: Neu5Ac(a2-3)Gal(b1-4)GlcNAc(b1-2)[Neu5Ac(a2-3)Gal(b1-4)GlcNAc(b1-4)]Man(a1-3)[GlcNAc(b1-4)][Neu5Ac(a2-3)Gal(b1-4)GlcNAc(b1-2)[Neu5Ac(a2-3)Gal(b1-4)GlcNAc(b1-6)]Man(a1-6)]Man(b1-4)GlcNAc(b1-4)GlcNAc
# Outline: as §1
# [24] = molecular target: Neu5Ac(a2-3)Gal(b1-4)GlcNAc(b1-2)[Neu5Ac(a2-3)Gal(b1-4)GlcNAc(b1-4)]Man(a1-3)[GlcNAc(b1-4)][Neu5Ac(a2-3)Gal(b1-4)GlcNAc(b1-4)Man(a1-6)]Man(b1-4)GlcNAc(b1-4)GlcNAc
# Outline: as §1
# [25] = molecular target: Neu5Ac(a2-3)Gal(b1-4)GlcNAc(b1-2)[Neu5Ac(a2-3)Gal(b1-4)GlcNAc(b1-6)]Man(a1-6)[Neu5Ac(a2-3)Gal(b1-4)GlcNAc(b1-2)Man(a1-3)]Man(b1-4)GlcNAc(b1-4)GlcNAc
# Outline: as §1
# [26] = molecular target: Neu5Ac(a2-3)Gal(b1-4)GlcNAc(b1-2)[Neu5Ac(a2-3)Gal(b1-4)GlcNAc(b1-6)]Man(a1-6)[Neu5Ac(a2-3)Gal(b1-4)GlcNAc(b1-2)Man(a1-3)][GlcNAc(b1-4)]Man(b1-4)GlcNAc(b1-4)GlcNAc
# Outline: as §1
# [27] = molecular target: Neu5Ac(a2-3)Gal(b1-4)GlcNAc(b1-3)Gal
# Outline: as §1
# [28] = molecular target: Neu5Ac(a2-3)Gal(b1-4)GlcNAc(b1-3)Gal(b1-3)GlcNAc
# Outline: as §1
# [29] = molecular target: Neu5Ac(a2-3)Gal(b1-4)GlcNAc(b1-3)Gal(b1-4)GlcNAc
# Outline: as §1
# [30] = molecular target: Neu5Ac(a2-3)Gal(b1-4)GlcNAc(b1-3)Gal(b1-4)GlcNAc(b1-2)Man(a1-3)[Neu5Ac(a2-3)Gal(b1-4)GlcNAc(b1-3)Gal(b1-4)GlcNAc(b1-2)Man(a1-6)]Man(b1-4)GlcNAc(b1-4)GlcNAc
# Outline: as §1
# [31] = molecular target: Neu5Ac(a2-3)Gal(b1-4)GlcNAc(b1-3)Gal(b1-4)GlcNAc(b1-3)Gal(b1-4)GlcNAc
# Outline: as §1
# [32] = molecular target: Neu5Ac(a2-3)Gal(b1-4)GlcNAc(b1-3)Gal(b1-4)GlcNAc(b1-3)Gal(b1-4)GlcNAc(b1-2)Man(a1-3)[Neu5Ac(a2-3)Gal(b1-4)GlcNAc(b1-3)Gal(b1-4)GlcNAc(b1-3)Gal(b1-4)GlcNAc(b1-2)Man(a1-6)]GalNAc
# Outline: as §1
# [33] = molecular target: Neu5Ac(a2-3)Gal(b1-4)GlcNAc(b1-3)Gal(b1-4)GlcNAc(b1-3)GalNAc
# Outline: as §1
# [34] = molecular target: Neu5Ac(a2-3)Gal(b1-4)GlcNAc(b1-3)Gal(b1-4)GlcNAc(b1-3)[Neu5Ac(a2-3)Gal(b1-4)GlcNAc(b1-3)Gal(b1-4)GlcNAc(b1-6)]GalNAc
# Outline: as §1
# [35] = molecular target: Neu5Ac(a2-3)Gal(b1-4)GlcNAc(b1-3)Gal(b1-4)GlcNAc(b1-6)[Gal(b1-3)]GalNAc
# Outline: as §1
# [36] = molecular target: Neu5Ac(a2-3)Gal(b1-4)GlcNAc(b1-3)Gal(b1-4)[Fuc(a1-3)]GlcNAc
# Outline: as §1
# [37] = molecular target: Neu5Ac(a2-3)Gal(b1-4)GlcNAc(b1-3)GalNAc
# Outline: as §1
# [38] = molecular target: Neu5Ac(a2-3)Gal(b1-4)GlcNAc(b1-3)[Neu5Ac(a2-3)Gal(b1-4)GlcNAc(b1-6)]GalNAc
# Outline: as §1
binder,measurement,setting,value
PX9961Q-bfa-504-27-504 (Bacteroides fragilis) (protein) NDWLDRKPADGIPSEDAITNYNDALTARTGMYDGIQGNSNATSYYGARMFYYGDVRADDMQARTQGMRSSSCYEMLYTVDDAPNMWNIPYNVIRRANRLIEAINEKKVTDATEAQIGKIYSEALVVRALVHFDLVRIYGMPYTADNGASLGVPVIVKPLERNDLPSRNTVAEVYTQVITDLTDAINSGYLAKDQTPGYINEWAAKALLTRVYLTKGDNENALKVAEDIITNSPYKLWTNEEYVNAWYKSNGAHTNEMIFEVVNASNDDWTDRNGIAYLLNENGYADAIVTKSFMNMLSQDPKDVRIGMVLPAQYDKDLQEEYGDAKIFINKFPADKDDVGEMRLNNLPLLRLSEVYLSAAEAAAKLGGHQDKAAKYLNEIVQRANPEAKAISEADATVERIILERRKEMIGEGQRYFDALRNNETIVRYKDEGDKGYHYSLIKESQSFDRTYFRAILPIPVDETNVNPNLRAQQNPGY,glycan array binding signal (z-score),[1],-0.652
same,glycan array binding signal (z-score),[2],-0.686
same,glycan array binding signal (z-score),[3],-0.939
same,glycan array binding signal (z-score),[4],0.081
same,glycan array binding signal (z-score),[5],0.193
same,glycan array binding signal (z-score),[6],-0.577
same,glycan array binding signal (z-score),[7],-0.896
same,glycan array binding signal (z-score),[8],1.4
same,glycan array binding signal (z-score),[9],0.453
same,glycan array binding signal (z-score),[10],0.339
same,glycan array binding signal (z-score),[11],-0.611
same,glycan array binding signal (z-score),[12],-0.315
same,glycan array binding signal (z-score),[13],-0.652
same,glycan array binding signal (z-score),[14],-1.12
same,glycan array binding signal (z-score),[15],-0.275
same,glycan array binding signal (z-score),[16],-0.356
same,glycan array binding signal (z-score),[17],-0.47
same,glycan array binding signal (z-score),[18],-0.285
same,glycan array binding signal (z-score),[19],-0.384
same,glycan array binding signal (z-score),[20],-0.533
same,glycan array binding signal (z-score),[21],-0.812
same,glycan array binding signal (z-score),[22],-0.28
same,glycan array binding signal (z-score),[23],-0.47
same,glycan array binding signal (z-score),[24],-0.92
same,glycan array binding signal (z-score),[25],0.918
same,glycan array binding signal (z-score),[26],0.676
same,glycan array binding signal (z-score),[27],-0.707
same,glycan array binding signal (z-score),[28],-0.674
same,glycan array binding signal (z-score),[29],-0.229
same,glycan array binding signal (z-score),[30],-0.056
same,glycan array binding signal (z-score),[31],-0.525
same,glycan array binding signal (z-score),[32],1.33
same,glycan array binding signal (z-score),[33],-0.096
same,glycan array binding signal (z-score),[34],1.19
same,glycan array binding signal (z-score),[35],1.14
same,glycan array binding signal (z-score),[36],0.229
same,glycan array binding signal (z-score),[37],-0.435
same,glycan array binding signal (z-score),[38],0.693

# Two successive entries already listed:
binder,measurement,setting,value
PX9961Q-bfa-504-27-504 (Bacteroides fragilis) (protein) NDWLDRKPADGIPSEDAITNYNDALTARTGMYDGIQGNSNATSYYGARMFYYGDVRADDMQARTQGMRSSSCYEMLYTVDDAPNMWNIPYNVIRRANRLIEAINEKKVTDATEAQIGKIYSEALVVRALVHFDLVRIYGMPYTADNGASLGVPVIVKPLERNDLPSRNTVAEVYTQVITDLTDAINSGYLAKDQTPGYINEWAAKALLTRVYLTKGDNENALKVAEDIITNSPYKLWTNEEYVNAWYKSNGAHTNEMIFEVVNASNDDWTDRNGIAYLLNENGYADAIVTKSFMNMLSQDPKDVRIGMVLPAQYDKDLQEEYGDAKIFINKFPADKDDVGEMRLNNLPLLRLSEVYLSAAEAAAKLGGHQDKAAKYLNEIVQRANPEAKAISEADATVERIILERRKEMIGEGQRYFDALRNNETIVRYKDEGDKGYHYSLIKESQSFDRTYFRAILPIPVDETNVNPNLRAQQNPGY,glycan array binding signal (z-score),[37],-0.435
same,glycan array binding signal (z-score),[38],0.693
